According to article PMC6946706:

Biological target: FLAG-RepID FL (U2OS stable) (UniProt Q8WWQ0)
Assay: affinity purification with mass spectrometry; anti-FLAG IP from a mixture of soluble nuclear and chromatin-bound fractions of U2OS cells stably expressing FLAG-RepID; IgG as negative control; beads washed three times with PBS

- binding: binds
Substance: BUB3 (endogenous) (from UniProt O43684 1-328)

These are yes or no findings as the source states them, for the method shown. Binding seen in cells or lysates may run through a third protein. Here binding means that the protein was enriched with, or labelled near, the bait; the list need not be complete.
